# The list shows a part of the results.
# Biological target: T1, OsSMF1 (Oryza sativa, UniProt Q6ZLB0 1-436)
# T1 sequence: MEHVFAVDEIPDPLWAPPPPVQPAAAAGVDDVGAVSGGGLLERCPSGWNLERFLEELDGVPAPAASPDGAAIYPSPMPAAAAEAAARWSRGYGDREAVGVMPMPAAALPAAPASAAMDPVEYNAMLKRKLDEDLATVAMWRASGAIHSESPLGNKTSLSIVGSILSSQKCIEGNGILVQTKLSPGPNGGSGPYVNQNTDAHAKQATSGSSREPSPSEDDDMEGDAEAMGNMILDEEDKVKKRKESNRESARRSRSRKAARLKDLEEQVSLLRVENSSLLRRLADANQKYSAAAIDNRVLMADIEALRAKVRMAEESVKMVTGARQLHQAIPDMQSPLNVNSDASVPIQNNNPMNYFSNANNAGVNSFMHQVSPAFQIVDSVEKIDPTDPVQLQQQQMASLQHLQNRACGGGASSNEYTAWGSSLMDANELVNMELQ
# Test: protein-binding microarray (RPBM); PBS, 2% BSA, 51.3 ng/ul salmon testes DNA, 50 uM zinc acetate, 200 nM TF, 25 C, 1 h; high values mean tight binding
# Details: protein: recombinant; tags: N-terminal polyhistidine and DsRed monomer fusion (pET32a); chain copies: 2; label: CyDye5-dUTP incorporated in the synthesized complementary strand; 3' TTTTT single-stranded linker to array surface; dsDNA, one strand shown
# In short: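 The binding signal for each feature is its fluorescence intensity in arbitrary units. An Axon 4000B scanner was used to read a custom Agilent array that had been made double-stranded with Cy5-dUTP primer extension, blocked with 2% BSA, incubated at 25 °C for 1 h with 200 nM protein in PBS, 2% BSA, salmon testes DNA and 50 µM zinc acetate, and washed. The protein was an N-terminal polyhistidine–DsRed transcription factor fusion from E. coli BL21-CodonPlus, purified on Ni–NTA.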
row,Sequence,binding signal
1,GCCTGGCACATGCATGATCCTTAACTTCCAAGTCAGATTGCGGAGTCACCTAGTGCAG,4220 fluorescence intensity (a.u.)
2,AAGTTGGTTTAAAATCTCAATAAATTCATTTCCAAGTCTACGGAGTCACCTAGTGCAG,5380 fluorescence intensity (a.u.)
3,CCTTCCCACCGCCGCATCCTCGATCTGCGTGCTGCCACCGCGGAGTCACCTAGTGCAG,3500 fluorescence intensity (a.u.)
4,ATCTAGACCATTATTCTTTTAGTAATTTCAAATTTGTATTCGGAGTCACCTAGTGCAG,4970 fluorescence intensity (a.u.)
5,TAGTAATCCAGGTATTTTAGTCATTTTGCAGCATCACTCACGGAGTCACCTAGTGCAG,3400 fluorescence intensity (a.u.)
6,ATGAATCTGACAGGTGCTTCCCACGTGTAGATGAGGAAGACGGAGTCACCTAGTGCAG,4590 fluorescence intensity (a.u.)
7,CATTCATGTTTGACAGCAGCAGGCTTTGCCTCCTCACTCCCGGAGTCACCTAGTGCAG,3430 fluorescence intensity (a.u.)
8,AGCCCGGCCCATTATCATCACACCAACTCATCCACCCCGTCGGAGTCACCTAGTGCAG,17800 fluorescence intensity (a.u.)
9,GTCGAGGAGGAGGCGGTGGTGGTGGTGGTGGCGCGGCCGCCGGAGTCACCTAGTGCAG,4080 fluorescence intensity (a.u.)
10,AGGAGCTTCCCGTCCACGTGCGCGGAACGCACGCTACCGCCGGAGTCACCTAGTGCAG,8250 fluorescence intensity (a.u.)
11,ACCCGCCCTTGTTGCGTTGCGTCGGCGTATATGTACGCACCGGAGTCACCTAGTGCAG,3430 fluorescence intensity (a.u.)
12,GAGGGGATGACGGTGGTCTCGGCAGCGGATGACGGCGGCGCGGAGTCACCTAGTGCAG,4490 fluorescence intensity (a.u.)
13,CCGCCGCCGCCTTGCTCTCCTTCCCACCTGTTGGCTGGCGCGGAGTCACCTAGTGCAG,3470 fluorescence intensity (a.u.)
14,GAAGAGTGATGAGTGATGAGAATTGAGATCCCAATCCTGACGGAGTCACCTAGTGCAG,4290 fluorescence intensity (a.u.)
15,ACTCCCGGCCGCTGCCCGGTGACTCGCCGCCGGCGACCGCCGGAGTCACCTAGTGCAG,24700 fluorescence intensity (a.u.)
16,ATCATCATCATCATCGTCGTTGTCGTCATCATCACTATTACGGAGTCACCTAGTGCAG,6220 fluorescence intensity (a.u.)
17,CTCCGCAGTCGTAGGCCCACGCGAACCATTCCGTGTGCAACGGAGTCACCTAGTGCAG,52000 fluorescence intensity (a.u.)
18,ATCGGATACGGACACGTATCGGACACGGCCGGATACGTGTCGGAGTCACCTAGTGCAG,5470 fluorescence intensity (a.u.)
19,ACGGCACGGCCCGCTACAGGAGCCGTGCCTAACGGGCCGTCGGAGTCACCTAGTGCAG,3740 fluorescence intensity (a.u.)
20,GGATTTGGCTTAGCGTGAAGGAGCTGGCATGCATGCATCGCGGAGTCACCTAGTGCAG,3370 fluorescence intensity (a.u.)
21,AGTCCCACTCATCTTTATATAGTATAAGGTGCTGAGGTGTCGGAGTCACCTAGTGCAG,6990 fluorescence intensity (a.u.)

row,Sequence,binding signal
1,GGCGTTATAATAAGGATGTGTATTGCTACCCTAAATCAGTCGGAGTCACCTAGTGCAG,3250 fluorescence intensity (a.u.)
2,AGACTGGTTTACGCTCCCCGAATGGTCGCCTATTCAGGTGCGGAGTCACCTAGTGCAG,26000 fluorescence intensity (a.u.)
3,CCCACGGTGCGGCGCCCCGCCGTACGTCGCCGCGTGCGCGCGGAGTCACCTAGTGCAG,3300 fluorescence intensity (a.u.)
4,GCGACGCCTGCGTCGAGCACCACCTGCAGCGTGGCCAGGGCGGAGTCACCTAGTGCAG,3450 fluorescence intensity (a.u.)
5,CGGCTTGACGAGGATGATGCAGCGCTGGAACATGGCGGCCCGGAGTCACCTAGTGCAG,4150 fluorescence intensity (a.u.)
6,CTTCAATGATTTTGTCGTCATCACCAATGCGGATCATATGCGGAGTCACCTAGTGCAG,4920 fluorescence intensity (a.u.)
7,TTCCCACCCGCACTCCACTTGCGCGCCACGCCATGGATGACGGAGTCACCTAGTGCAG,5490 fluorescence intensity (a.u.)
8,CCCCGCGCGCACCCACCCCACCGAAGGGGAGAGGCAGGCACGGAGTCACCTAGTGCAG,24600 fluorescence intensity (a.u.)
9,GCTTCACGTGGACCGCGGCCATCATCATCAGGCTGCAGCTCGGAGTCACCTAGTGCAG,3730 fluorescence intensity (a.u.)
10,GGCCGGGCCTAGGACCCAGTCGGGCGCACGCGCGCGACACCGGAGTCACCTAGTGCAG,16300 fluorescence intensity (a.u.)
11,CTCTTCTTCTCCGGCACCGGCGACAGGGAAGACAGCTGCGCGGAGTCACCTAGTGCAG,34700 fluorescence intensity (a.u.)
12,TGTGACCCTGGTGACACTAGTGTCATCATTGGCAAGCCCCCGGAGTCACCTAGTGCAG,5660 fluorescence intensity (a.u.)
13,CACAAGATGTCTGAAAATTTGCACGTGTGTTGTGGCTCTGCGGAGTCACCTAGTGCAG,3720 fluorescence intensity (a.u.)
14,AATTTCACCAGGAGATGAGTCTGCTGACTGTTCGGAAGAACGGAGTCACCTAGTGCAG,4060 fluorescence intensity (a.u.)
15,AGAAAGCCTAATGTACGGCGCCATGGAATTTCAATTGCGTCGGAGTCACCTAGTGCAG,3700 fluorescence intensity (a.u.)
16,CTATGTATATAGTTGCTTAATTGACTTGTCATTAGTATGACGGAGTCACCTAGTGCAG,3330 fluorescence intensity (a.u.)
17,TCTACGACACGGACAACATCATCAAGCGCTACACCTACGACGGAGTCACCTAGTGCAG,4370 fluorescence intensity (a.u.)
18,GCATCCGTAACACCAAGGTCAGCTACCACACCTTGGCCTACGGAGTCACCTAGTGCAG,20800 fluorescence intensity (a.u.)
19,CGCCGCCACAACCGCGCGCCGTCACCGCCGCGTGCCGTCACGGAGTCACCTAGTGCAG,5070 fluorescence intensity (a.u.)
20,CACCCCTAAGTGTGAGTGTGTATTTGTAACCCAAAAGTCACGGAGTCACCTAGTGCAG,35600 fluorescence intensity (a.u.)
21,GCTTCCACGTCGCGCTTGCCAGCCATGAGCCTTTGTGTCACGGAGTCACCTAGTGCAG,4090 fluorescence intensity (a.u.)

# Some values from the list:
# binding signal, CTCTTCTTCTCCGGCACCGGCGACAGGGAAGACAGCTGCGCGGAGTCACCTAGTGCAG reads 34700 fluorescence intensity (a.u.)
# binding signal, CATTCATGTTTGACAGCAGCAGGCTTTGCCTCCTCACTCCCGGAGTCACCTAGTGCAG reads 3430 fluorescence intensity (a.u.)

# — publication PMC7819943, “Rice protein-binding microarrays: a tool to detect cis-acting elements near promoter regions in rice”
